Laboratory results: the supplement of paper PMC10849652
The other results are listed elsewhere or left out.

The chains behind the UniProt entries cited, without tags or fusion partners. Where a name states a change or a piece, a line headed by the entry shows the natural chain unless it says otherwise.
UniProt Q9NTJ4: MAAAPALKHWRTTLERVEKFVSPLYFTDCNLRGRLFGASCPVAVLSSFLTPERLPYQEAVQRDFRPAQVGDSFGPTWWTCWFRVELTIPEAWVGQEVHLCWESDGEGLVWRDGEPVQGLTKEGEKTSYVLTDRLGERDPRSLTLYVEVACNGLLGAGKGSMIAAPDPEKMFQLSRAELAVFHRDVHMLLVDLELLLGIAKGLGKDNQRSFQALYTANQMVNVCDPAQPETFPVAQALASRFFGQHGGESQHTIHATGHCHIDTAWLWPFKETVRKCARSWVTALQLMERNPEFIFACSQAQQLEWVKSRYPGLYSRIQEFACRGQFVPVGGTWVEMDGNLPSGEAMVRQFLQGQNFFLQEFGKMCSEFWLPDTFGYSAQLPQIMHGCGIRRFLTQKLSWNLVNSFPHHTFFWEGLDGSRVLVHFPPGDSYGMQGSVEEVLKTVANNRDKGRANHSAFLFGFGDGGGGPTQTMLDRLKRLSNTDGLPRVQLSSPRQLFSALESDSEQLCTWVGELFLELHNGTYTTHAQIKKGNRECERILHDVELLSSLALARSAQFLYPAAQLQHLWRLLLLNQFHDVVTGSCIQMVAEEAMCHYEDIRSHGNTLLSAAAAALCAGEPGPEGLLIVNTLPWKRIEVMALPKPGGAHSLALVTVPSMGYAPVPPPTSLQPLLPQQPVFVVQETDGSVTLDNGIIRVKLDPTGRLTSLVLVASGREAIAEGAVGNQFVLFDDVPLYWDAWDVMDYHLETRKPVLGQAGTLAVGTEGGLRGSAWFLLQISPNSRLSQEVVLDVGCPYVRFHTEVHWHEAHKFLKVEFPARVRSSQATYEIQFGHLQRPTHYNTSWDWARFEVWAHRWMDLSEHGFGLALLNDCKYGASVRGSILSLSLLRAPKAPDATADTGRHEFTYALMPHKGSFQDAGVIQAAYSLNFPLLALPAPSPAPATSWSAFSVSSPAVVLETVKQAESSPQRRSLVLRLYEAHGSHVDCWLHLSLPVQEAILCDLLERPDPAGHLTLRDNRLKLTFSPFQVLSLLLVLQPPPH
UniProt Q8WXG6, whole entry, looked up: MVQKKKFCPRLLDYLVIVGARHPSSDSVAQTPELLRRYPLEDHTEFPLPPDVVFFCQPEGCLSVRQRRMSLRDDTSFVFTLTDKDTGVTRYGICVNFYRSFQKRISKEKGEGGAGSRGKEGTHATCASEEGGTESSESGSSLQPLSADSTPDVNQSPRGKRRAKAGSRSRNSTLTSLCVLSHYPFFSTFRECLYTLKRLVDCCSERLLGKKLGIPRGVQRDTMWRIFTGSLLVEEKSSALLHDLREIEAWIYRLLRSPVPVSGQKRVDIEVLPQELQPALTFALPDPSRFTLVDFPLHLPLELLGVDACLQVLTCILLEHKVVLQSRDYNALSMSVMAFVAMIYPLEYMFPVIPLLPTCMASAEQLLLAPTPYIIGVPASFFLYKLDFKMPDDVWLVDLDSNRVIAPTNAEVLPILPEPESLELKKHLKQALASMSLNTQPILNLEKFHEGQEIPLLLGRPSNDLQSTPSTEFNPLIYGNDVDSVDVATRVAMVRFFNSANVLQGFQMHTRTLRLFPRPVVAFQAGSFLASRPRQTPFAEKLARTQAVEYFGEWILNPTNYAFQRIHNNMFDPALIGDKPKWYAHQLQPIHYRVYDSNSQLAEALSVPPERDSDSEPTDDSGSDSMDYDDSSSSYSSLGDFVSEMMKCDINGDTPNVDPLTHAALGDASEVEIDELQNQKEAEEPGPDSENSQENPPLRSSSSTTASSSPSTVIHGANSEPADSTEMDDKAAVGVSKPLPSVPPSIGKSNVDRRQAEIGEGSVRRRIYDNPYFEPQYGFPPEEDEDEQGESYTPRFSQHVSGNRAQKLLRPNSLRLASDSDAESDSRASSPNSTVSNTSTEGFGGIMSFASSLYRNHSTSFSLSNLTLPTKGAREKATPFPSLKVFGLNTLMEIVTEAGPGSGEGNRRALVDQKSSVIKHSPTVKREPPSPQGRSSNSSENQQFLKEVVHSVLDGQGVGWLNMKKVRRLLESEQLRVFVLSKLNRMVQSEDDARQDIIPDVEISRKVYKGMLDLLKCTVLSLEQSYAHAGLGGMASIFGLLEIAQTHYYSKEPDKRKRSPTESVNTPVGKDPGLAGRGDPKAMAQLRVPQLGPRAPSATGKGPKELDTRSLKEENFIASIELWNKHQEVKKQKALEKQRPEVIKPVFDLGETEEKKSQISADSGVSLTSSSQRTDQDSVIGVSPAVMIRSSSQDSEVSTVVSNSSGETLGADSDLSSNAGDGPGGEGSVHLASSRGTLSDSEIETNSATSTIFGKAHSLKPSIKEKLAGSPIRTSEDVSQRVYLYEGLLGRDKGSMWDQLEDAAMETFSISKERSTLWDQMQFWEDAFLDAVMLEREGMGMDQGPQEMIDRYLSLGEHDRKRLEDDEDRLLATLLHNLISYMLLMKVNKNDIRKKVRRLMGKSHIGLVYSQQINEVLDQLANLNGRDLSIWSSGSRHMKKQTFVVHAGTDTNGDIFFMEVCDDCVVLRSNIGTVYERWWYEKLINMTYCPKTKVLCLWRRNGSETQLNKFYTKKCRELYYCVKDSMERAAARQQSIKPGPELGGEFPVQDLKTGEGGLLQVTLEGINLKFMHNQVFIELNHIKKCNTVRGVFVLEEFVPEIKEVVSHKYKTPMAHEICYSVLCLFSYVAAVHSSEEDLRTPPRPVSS
UniProt Q16539, whole entry, looked up: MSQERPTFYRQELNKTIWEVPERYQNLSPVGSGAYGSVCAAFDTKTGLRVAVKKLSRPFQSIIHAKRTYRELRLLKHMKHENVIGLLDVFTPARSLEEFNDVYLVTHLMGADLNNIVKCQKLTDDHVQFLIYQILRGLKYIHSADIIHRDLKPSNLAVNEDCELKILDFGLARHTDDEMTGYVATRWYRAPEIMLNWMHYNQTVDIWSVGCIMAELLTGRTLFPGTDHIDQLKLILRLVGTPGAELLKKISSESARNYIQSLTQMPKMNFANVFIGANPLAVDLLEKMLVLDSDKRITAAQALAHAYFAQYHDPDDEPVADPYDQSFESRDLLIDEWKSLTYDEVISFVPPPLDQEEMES

Key:
Experiment in all cases: log2 fold change, soluble protein after heating vs DMSO (PISA); higher = thermal stabilisation; K562 cells, 10 uM, 30 min; active = over 0.2 and 3.5 SD of the protein, either way, in both replicates (recomputed)
[1] = compound: NC(=O)Nc1cc(-c2cccc(F)c2)sc1C(=O)N[C@H]1CCCNC1
Procedure, shortened: (§1)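 K562 cells (2×10^6 cells/mL) were treated with 10 μM compound for 30 min, and aliquots were heated for 3 min over 48°C-58°C. Pooled aliquots were extracted in PBS with 0.5% NP-40 at 4°C, and the supernatant after 21,000xg for 90 min was measured by TMTpro 16plex LC-MS/MS with channel sums equalised. Reported thermal stability, relative to control samples and from duplicates, is a log2 fold change.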

[2] = compound: NC(=O)c1cnc(N[C@@H]2CCCC[C@@H]2N)nc1Nc1cccc(-n2nccn2)c1
Procedure, shortened: as §1

[3] = compound: NC1(c2ccc(-c3nc4ccn5c(=O)[nH]nc5c4cc3-c3ccccc3)cc2)CCC1
Procedure, shortened: as §1

[4] = compound: NCC(=O)Nc1ccc(-n2nc(C(F)(F)F)cc2-c2ccc3c(ccc4ccccc43)c2)cc1
Procedure, shortened: as §1

entinostat = compound: Nc1ccccc1NC(=O)c1ccc(CNC(=O)OCc2cccnc2)cc1 [entinostat]
Procedure, shortened: as §1

vorinostat = compound: O=C(CCCCCCC(=O)Nc1ccccc1)NO [vorinostat]
Procedure, shortened: as §1

citarinostat = compound: O=C(CCCCCCNC(=O)c1cnc(N(c2ccccc2)c2ccccc2Cl)nc1)NO [citarinostat]
Procedure, shortened: as §1

silmitasertib = compound: O=C(O)c1ccc2c(c1)nc(Nc1cccc(Cl)c1)c1ccncc12 [silmitasertib]
Procedure, shortened: as §1

[5] = compound: O=C1NC(=O)C(c2cnc3ccccn23)=C1c1cn2c3c(cc(F)cc13)CN(C(=O)N1CCCCC1)CC2
Procedure, shortened: as §1

[6] = compound: c1cc(OCCN2CCCCC2)cc(-c2n[nH]c3ccc(-c4nnc[nH]4)cc23)c1
Procedure, shortened: as §1

entospletinib = compound: c1cn2cc(-c3ccc4cn[nH]c4c3)nc(Nc3ccc(N4CCOCC4)cc3)c2n1 [entospletinib]
Procedure, shortened: as §1

Measured: log2 fold change

MAN2C1 isoform 4 (UniProt Q9NTJ4)
inactive: [1] -0.059 | [2] -0.012 | [3] -0.007 | [4] -0.006 | entinostat -0.049 | vorinostat -0.018 | citarinostat -0.014 | silmitasertib 0.065 | [5] 0.045 | [6] -0.048 | entospletinib -0.086

MADD isoform 2 (UniProt Q8WXG6)
inactive: [1] -0.025 | [2] -0.055 | [3] -0.022 | entinostat -0.006 | citarinostat -0.004 | silmitasertib 0.211 | [5] 0.07 | [6] -0.112 | entospletinib 0.107

MAPK14 (UniProt Q16539)
inactive: [1] -0.019 | [2] -0.047 | [3] -0.136 | [4] -0.033 | entinostat 0.022 | vorinostat 0.027 | citarinostat 0.051 | silmitasertib 0.37 | [6] 0.058

MARK2 (UniProt E9PC69)
inactive: [1] -0.513 | [2] -0.401 | [4] -0.213 | entinostat 0.101 | citarinostat 0.024 | [5] 0.082 | [6] -0.28

LYZ (UniProt P61626)
inactive: [1] 1.53 | [2] 0.418 | [3] 0.178 | [4] 0.022 | entinostat 0.039 | citarinostat 0.157 | silmitasertib -0.094 | [5] -0.216 | [6] 0.577 | entospletinib -0.079
